These are yes or no findings as the source states them, for the method shown. In cells and extracts the contact can be indirect. Some results given as binding are weak or reduced against the parent protein; the word gives no strength. Where a sequence is shown, tags or fusion partners need not be part of it.
Assays:
[1] = molecular target: ER (NanoBRET fusion, in cells) (UniProt P03372); test: FRET or BRET; NanoBRET PPI kit (Promega) in cells, ± ligand (9-cis RA; fulvestrant)
ER-GFP (293T) = ER-GFP (293T) (UniProt P03372); test: co-IP; 293T cells co-transfected with FLAG-RNF111 and ER-GFP, ± fulvestrant and MG132; blotted for FLAG and GFP

By UniProt entry, the sequences of proteins in these tests, tags left out.
UniProt P03372: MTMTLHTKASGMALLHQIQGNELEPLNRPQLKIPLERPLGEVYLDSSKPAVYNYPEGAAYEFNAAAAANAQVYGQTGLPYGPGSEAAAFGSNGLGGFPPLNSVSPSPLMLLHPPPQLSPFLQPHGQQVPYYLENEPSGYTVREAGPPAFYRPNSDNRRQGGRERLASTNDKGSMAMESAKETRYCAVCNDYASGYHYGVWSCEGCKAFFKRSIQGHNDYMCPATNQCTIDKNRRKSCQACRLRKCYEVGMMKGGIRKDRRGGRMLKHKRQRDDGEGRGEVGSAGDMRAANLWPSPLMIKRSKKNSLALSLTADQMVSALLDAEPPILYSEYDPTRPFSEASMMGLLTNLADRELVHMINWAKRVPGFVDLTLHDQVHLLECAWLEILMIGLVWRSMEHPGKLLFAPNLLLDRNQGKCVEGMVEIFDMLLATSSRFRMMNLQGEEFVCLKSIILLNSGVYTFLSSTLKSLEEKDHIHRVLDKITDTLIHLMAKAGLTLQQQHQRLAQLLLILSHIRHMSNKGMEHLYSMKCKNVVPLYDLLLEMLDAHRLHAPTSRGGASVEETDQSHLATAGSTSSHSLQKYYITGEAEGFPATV

binding [1]	binding (ER-GFP (293T))	Binder
binds		RNF111 (NanoBRET fusion, in cells) (enzyme, UniProt Q6ZNA4 1-994) MSQWTPEYNELYTLKVDMKSEIPSDAPKTQESLKGILLHPEPIGAAKSFPAGVEMINSKVGNEFSHLCDDSQKQEKEMNGNQQEQEKSLVVRKKRKSQQAGPSYVQNCVKENQGILGLRQHLGTPSDEDNDSSFSDCLSSPSSSLHFGDSDTVTSDEDKEVSVRHSQTILNAKSRSHSARSHKWPRTETESVSGLLMKRPCLHGSSLRRLPCRKRFVKNNSSQRTQKQKERILMQRKKREVLARRKYALLPSSSSSSENDLSSESSSSSSTEGEEDLFVSASENHQNNPAVPSGSIDEDVVVIEASSTPQVTANEEINVTSTDSEVEIVTVGESYRSRSTLGHSRSHWSQGSSSHASRPQEPRNRSRISTVIQPLRQNAAEVVDLTVDEDEPTVVPTTSARMESQATSASINNSNPSTSEQASDTASAVTSSQPSTVSETSATLTSNSTTGTSIGDDSRRTTSSAVTETGPPAMPRLPSCCPQHSPCGGSSQNHHALGHPHTSCFQQHGHHFQHHHHHHHTPHPAVPVSPSFSDPACPVERPPQVQAPCGANSSSGTSYHEQQALPVDLSNSGIRSHGSGSFHGASAFDPCCPVSSSRAAIFGHQAAAAAPSQPLSSIDGYGSSMVAQPQPQPPPQPSLSSCRHYMPPPYASLTRPLHHQASACPHSHGNPPPQTQPPPQVDYVIPHPVHAFHSQISSHATSHPVAPPPPTHLASTAAPIPQHLPPTHQPISHHIPATAPPAQRLHPHEVMQRMEVQRRRMMQHPTRAHERPPPHPHRMHPNYGHGHHIHVPQTMSSHPRQAPERSAWELGIEAGVTAATYTPGALHPHLAHYHAPPRLHHLQLGALPLMVPDMAGYPHIRYISSGLDGTSFRGPFRGNFEELIHLEERLGNVNRGASQGTIERCTYPHKYKKVTTDWFSQRKLHCKQDGEEGTEEDTEEKCTICLSILEEGEDVRRLPCMHLFHQVCVDQWLITNKKCPICRVDIEAQLPSES
	binds	FLAG-RNF111 (enzyme, UniProt Q6ZNA4 1-994) MSQWTPEYNELYTLKVDMKSEIPSDAPKTQESLKGILLHPEPIGAAKSFPAGVEMINSKVGNEFSHLCDDSQKQEKEMNGNQQEQEKSLVVRKKRKSQQAGPSYVQNCVKENQGILGLRQHLGTPSDEDNDSSFSDCLSSPSSSLHFGDSDTVTSDEDKEVSVRHSQTILNAKSRSHSARSHKWPRTETESVSGLLMKRPCLHGSSLRRLPCRKRFVKNNSSQRTQKQKERILMQRKKREVLARRKYALLPSSSSSSENDLSSESSSSSSTEGEEDLFVSASENHQNNPAVPSGSIDEDVVVIEASSTPQVTANEEINVTSTDSEVEIVTVGESYRSRSTLGHSRSHWSQGSSSHASRPQEPRNRSRISTVIQPLRQNAAEVVDLTVDEDEPTVVPTTSARMESQATSASINNSNPSTSEQASDTASAVTSSQPSTVSETSATLTSNSTTGTSIGDDSRRTTSSAVTETGPPAMPRLPSCCPQHSPCGGSSQNHHALGHPHTSCFQQHGHHFQHHHHHHHTPHPAVPVSPSFSDPACPVERPPQVQAPCGANSSSGTSYHEQQALPVDLSNSGIRSHGSGSFHGASAFDPCCPVSSSRAAIFGHQAAAAAPSQPLSSIDGYGSSMVAQPQPQPPPQPSLSSCRHYMPPPYASLTRPLHHQASACPHSHGNPPPQTQPPPQVDYVIPHPVHAFHSQISSHATSHPVAPPPPTHLASTAAPIPQHLPPTHQPISHHIPATAPPAQRLHPHEVMQRMEVQRRRMMQHPTRAHERPPPHPHRMHPNYGHGHHIHVPQTMSSHPRQAPERSAWELGIEAGVTAATYTPGALHPHLAHYHAPPRLHHLQLGALPLMVPDMAGYPHIRYISSGLDGTSFRGPFRGNFEELIHLEERLGNVNRGASQGTIERCTYPHKYKKVTTDWFSQRKLHCKQDGEEGTEEDTEEKCTICLSILEEGEDVRRLPCMHLFHQVCVDQWLITNKKCPICRVDIEAQLPSES
